Measured values reported in the supplement of paper PMC8426693.
The list shows a part of the results.

Legend:
Assay in all cases: NMR binding call after quantification (hit when 2 of 3 NMR criteria are met) (binary (1 = binding, 0 = not binding)); higher = binding
Details in all cases: RNA concentration 10 µM; fragment concentration 200 µM; 293 K
[1] = system: SARS-CoV-2 3'-UTR RNA
[2] = system: SARS-CoV-2 3_SL1 RNA
[3] = system: SARS-CoV-2 3_SL1+2 RNA
[4] = system: SARS-CoV-2 3_SL2 RNA
[5] = system: SARS-CoV-2 3_SL3base RNA
[6] = system: SARS-CoV-2 3_s2m RNA
[7] = system: SARS-CoV-2 5'-UTR RNA
[8] = system: SARS-CoV-2 5_SL1 RNA
[9] = system: SARS-CoV-2 5_SL1234 RNA
[10] = system: SARS-CoV-2 5_SL2+3 RNA
[11] = system: SARS-CoV-2 5_SL4 RNA
[12] = system: SARS-CoV-2 5_SL5 RNA
[13] = system: SARS-CoV-2 5_SL5a RNA
[14] = system: SARS-CoV-2 5_SL5b+c RNA
[15] = system: SARS-CoV-2 5_SL5stem RNA
[16] = system: SARS-CoV-2 5_SL6 RNA

Measured: NMR binding call

Cc1noc(C)c1CC(C)C(=O)N(C)C (stereo not drawn)
0: [1] | [2] | [3] | [4] | [5] | [6] | [7] | [8] | [9] | [10] | [11] | [12] | [13] | [14] | [15] | [16]

COc1cc(NC(C)=O)c(OC)cc1Cl
0: [1] | [2] | [3] | [4] | [5] | [6] | [7] | [8] | [9] | [10] | [11] | [12] | [13] | [14] | [15] | [16]

Cc1nccn1CC(C)O (stereo not drawn)
0: [1] | [2] | [3] | [4] | [5] | [6] | [7] | [8] | [9] | [10] | [11] | [12] | [13] | [14] | [15] | [16]

CCn1cc(CCO)cn1
0: [1] | [2] | [3] | [4] | [5] | [6] | [7] | [8] | [9] | [10] | [11] | [12] | [13] | [14] | [15] | [16]

CCN(CC)C(=O)c1cc(C)no1
0: [1] | [2] | [3] | [4] | [5] | [6] | [7] | [8] | [9] | [10] | [11] | [12] | [13] | [14] | [15] | [16]

Cc1noc(CN2CCC(CO)CC2)n1
0: [1] | [2] | [3] | [4] | [5] | [6] | [7] | [8] | [9] | [10] | [11] | [12] | [13] | [14] | [15] | [16]

Oc1cccc(CN2CCSCC2)c1
0: [1] | [2] | [3] | [4] | [5] | [6] | [7] | [8] | [9] | [10] | [11] | [12] | [13] | [14] | [15] | [16]

Cn1nnc(NC(=O)c2ccc(F)cc2)n1
0: [1] | [2] | [3] | [4] | [5] | [6] | [7] | [8] | [9] | [10] | [11] | [12] | [13] | [14] | [15] | [16]

NC(=S)Nc1ccc(OC(F)(F)F)cc1
0: [1] | [2] | [3] | [4] | [5] | [6] | [7] | [8] | [9] | [10] | [11] | [12] | [13] | [14] | [15] | [16]

COCc1nnc(N)s1
0: [1] | [2] | [3] | [4] | [5] | [6] | [7] | [8] | [9] | [10] | [11] | [12] | [13] | [14] | [15] | [16]

Already shown: two of the compounds above.
Cc1noc(CN2CCC(CO)CC2)n1
0: [1] | [2] | [3] | [4] | [5] | [6] | [7] | [8] | [9] | [10] | [11] | [12] | [13] | [14] | [15] | [16]

Oc1cccc(CN2CCSCC2)c1
0: [1] | [2] | [3] | [4] | [5] | [6] | [7] | [8] | [9] | [10] | [11] | [12] | [13] | [14] | [15] | [16]

(continued)

CC(C)C(=O)NCC1CCCNC1 (stereo not drawn)
0: [1] | [2] | [3] | [4] | [5] | [6] | [7] | [8] | [9] | [10] | [11] | [12] | [13] | [14] | [15] | [16]

CC1(C)CN(c2ncccc2F)CC1O (stereo not drawn)
0: [1] | [2] | [3] | [4] | [5] | [6] | [7] | [8] | [9] | [10] | [11] | [12] | [13] | [14] | [15] | [16]

CCNC(=O)Nc1cc(C)on1
0: [1] | [2] | [3] | [4] | [5] | [6] | [7] | [8] | [9] | [10] | [11] | [12] | [13] | [14] | [15] | [16]
